Binding data for 1 substance are collected here from article PMC5753878.

Amino acid sequences for entries named in this document (tags omitted). A change or cut given only in a name is not applied to a line headed by its entry.
UniProt P17214: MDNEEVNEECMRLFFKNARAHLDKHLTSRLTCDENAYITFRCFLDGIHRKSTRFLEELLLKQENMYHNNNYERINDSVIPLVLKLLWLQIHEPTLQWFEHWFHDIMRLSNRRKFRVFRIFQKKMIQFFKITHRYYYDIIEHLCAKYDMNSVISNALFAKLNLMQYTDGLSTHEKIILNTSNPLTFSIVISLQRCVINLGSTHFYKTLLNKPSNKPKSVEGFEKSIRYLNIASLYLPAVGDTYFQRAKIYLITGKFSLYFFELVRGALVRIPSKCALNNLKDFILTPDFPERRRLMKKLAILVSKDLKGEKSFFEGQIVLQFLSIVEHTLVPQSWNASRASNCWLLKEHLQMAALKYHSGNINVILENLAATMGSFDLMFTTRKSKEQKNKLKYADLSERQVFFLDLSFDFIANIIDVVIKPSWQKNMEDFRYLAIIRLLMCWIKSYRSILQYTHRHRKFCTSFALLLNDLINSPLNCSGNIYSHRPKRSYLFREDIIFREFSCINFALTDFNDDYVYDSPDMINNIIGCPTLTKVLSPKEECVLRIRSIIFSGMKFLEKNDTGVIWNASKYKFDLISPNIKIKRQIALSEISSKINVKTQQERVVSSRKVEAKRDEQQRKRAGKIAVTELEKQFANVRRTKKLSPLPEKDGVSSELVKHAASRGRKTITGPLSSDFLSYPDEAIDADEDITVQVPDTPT

No constants are given. Whether binding was seen depends on the method and setting. In cells and extracts the contact can be indirect. Binding can be weak; no strength is given. Where a sequence is shown, tags or fusion partners need not be part of it.

The target of the assay is T1, Cdc13 tagged with (FLAG)3 (S. cerevisiae) (UniProt P32797).
T1 sequence: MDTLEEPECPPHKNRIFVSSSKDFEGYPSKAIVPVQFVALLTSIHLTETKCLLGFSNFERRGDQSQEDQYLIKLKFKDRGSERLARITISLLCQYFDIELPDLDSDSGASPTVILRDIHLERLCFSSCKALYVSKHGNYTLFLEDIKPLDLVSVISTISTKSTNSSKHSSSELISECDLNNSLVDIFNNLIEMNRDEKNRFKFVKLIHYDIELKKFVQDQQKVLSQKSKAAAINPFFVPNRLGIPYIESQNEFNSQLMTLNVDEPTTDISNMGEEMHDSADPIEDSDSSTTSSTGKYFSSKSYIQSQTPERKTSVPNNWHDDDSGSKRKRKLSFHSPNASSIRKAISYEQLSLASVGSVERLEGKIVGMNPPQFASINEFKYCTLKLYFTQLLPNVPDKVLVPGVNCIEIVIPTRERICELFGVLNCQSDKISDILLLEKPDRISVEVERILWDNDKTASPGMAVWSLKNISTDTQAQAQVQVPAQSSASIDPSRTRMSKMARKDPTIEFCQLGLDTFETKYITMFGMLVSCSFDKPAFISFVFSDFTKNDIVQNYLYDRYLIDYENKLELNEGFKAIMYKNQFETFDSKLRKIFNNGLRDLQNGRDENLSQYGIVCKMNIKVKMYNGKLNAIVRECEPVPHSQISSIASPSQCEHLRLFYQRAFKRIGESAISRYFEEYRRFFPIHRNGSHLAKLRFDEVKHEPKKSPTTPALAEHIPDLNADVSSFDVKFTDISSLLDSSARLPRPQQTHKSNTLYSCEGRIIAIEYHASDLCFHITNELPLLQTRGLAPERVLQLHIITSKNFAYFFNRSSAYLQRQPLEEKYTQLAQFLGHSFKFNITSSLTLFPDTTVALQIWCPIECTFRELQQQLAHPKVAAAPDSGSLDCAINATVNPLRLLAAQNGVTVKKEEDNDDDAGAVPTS
Put plainly: co-IP; anti-FLAG IP of Cdc13 tagged with (FLAG)3 from yeast extracts, Est1 tagged with (myc)12.

For “Est1-(myc)12 with a mutation of K555 (from UniProt P17214)”, the binding entry is recorded as “binds”.
